The text below walks through data of ChEMBL document CHEMBL5032503, “Propranolol Activates the Orphan Nuclear Receptor TLX to Counteract Proliferation and Migration of Glioblastoma Cells” (J Med Chem, 2021).

The subject of this assay is T98G. Kind of assay: cells. Conditions: Homo sapiens, 72 h.

As to `CC(C)NCC(O)COc1cccc2ccccc12` (racemic) [PROPRANOLOL], the midpoint of inhibition, the IC50, lay at 75 µM.
